B1: VAPA endogenous in mouse brain (protein, UniProt Q9WV55 1-249)
chain: MASASGAMAKHEQILVLDPPSDLKFKGPFTDVVTTNLKLQNPSDRKVCFKVKTTAPRRYCVRPNSGIIDPGSIVTVSVMLQPFDYDPNEKSKHKFMVQTIFAPPNISDMEAVWKEAKPDELMDSKLRCVFEMPNENDKLNDMEPSKAVPLNASKQDGPLPKPHSVSLNDTETRKLMEECKRLQGEMMKLSEENRHLRDEGLRLRKVAHSDKPGSTSAVSFRDNVTSPLPSLLVVIAAIFIGFFLGKFIL
B2: WLS (GPR177) endogenous in mouse brain (protein, UniProt Q6DID7 1-541)
chain: MAGAIIENMSTKKLCIVGGILLVFQIVAFLVGGLIAPAPTTAVPYTAIKCVDVRKNHHKTRWLAPWGPNKCDKIRDIEEAIPREIEANDIVFSVHIPLPSMEMSPWFQFMLFILQLDIAFKLNNQIRENAEISMDVSLGYRDDMFSEWTEMAHERVPRKLKCTFTSPKTPEHEGRYYNCDVLPFMEIGSVAHKYYLLNIRLPVNEKKKINVGIGEIKDIRLVGIHQNGGFTKVWFAMKTFLTPSIFIIMVWYWRRITMMSRPPVLLEKVIFALGISMTFINIPVEWFSIGFDWTWMLLFGDIRQGIFYAMLLSFWIIFCGEHMMDQHERNHIAGYWKQVGPIAVGSFCLFIFDMCERGVQLTNPFYSIWTTDVGTELAMAFIIVAGICLCLYFLFLCFMVFQVFRNISGKQSSLPAMSKVRRLHYEGLIFRFKFLMLITLACAAMTVIFFIVSQVSEGHWKWGGVTVQVSSAFFTGIYGMWNLYVFALMFLYAPSHKNYGEDQSNGDLGVHSGEELQLTTTITHVDGPTEIYKLTRKEAQE
B3: myc-tagged full-length VAPA (protein, UniProt Q9P0L0-1 1-249)
chain: B1 chain with S21T, Q40R, I73T, I106T, L159M, A217T, V218A
B4: myc-tagged full-length WLS (protein, UniProt Q5T9L3-1 1-541)
chain: MAGAIIENMSTKKLCIVGGILLVFQIIAFLVGGLIAPGPTTAVSYMSVKCVDARKNHHKTKWFVPWGPNHCDKIRDIEEAIPREIEANDIVFSVHIPLPHMEMSPWFQFMLFILQLDIAFKLNNQIRENAEVSMDVSLAYRDDAFAEWTEMAHERVPRKLKCTFTSPKTPEHEGRYYECDVLPFMEIGSVAHKFYLLNIRLPVNEKKKINVGIGEIKDIRLVGIHQNGGFTKVWFAMKTFLTPSIFIIMVWYWRRITMMSRPPVLLEKVIFALGISMTFINIPVEWFSIGFDWTWMLLFGDIRQGIFYAMLLSFWIIFCGEHMMDQHERNHIAGYWKQVGPIAVGSFCLFIFDMCERGVQLTNPFYSIWTTDIGTELAMAFIIVAGICLCLYFLFLCFMVFQVFRNISGKQSSLPAMSKVRRLHYEGLIFRFKFLMLITLACAAMTVIFFIVSQVTEGHWKWGGVTVQVNSAFFTGIYGMWNLYVFALMFLYAPSHKNYGEDQSNGDLGVHSGEELQLTTTITHVDGPTEIYKLTRKEAQE
B5: myc-tagged full-length human SIAH1 (enzyme, UniProt Q8IUQ4-1 1-282)
chain: MSRQTATALPTGTSKCPPSQRVPALTGTTASNNDLASLFECPVCFDYVLPPILQCQSGHLVCSNCRPKLTCCPTCRGPLGSIRNLAMEKVANSVLFPCKYASSGCEITLPHTEKADHEELCEFRPYSCPCPGASCKWQGSLDAVMPHLMHQHKSITTLQGEDIVFLATDINLPGAVDWVMMQSCFGFHFMLVLEKQEKYDGHQQFFAIVQLIGTRKQAENFAYRLELNGHRRRLTWEATPRSIHEGIATAIMNSDCLVFDTSIAQLFAENGNLGINVTISMC
B6: myc-tagged full-length AUP1 (protein, UniProt Q9Y679-2 1-410)
chain: MELPSGPGPERLFDSHRLPGDCFLLLVLLLYAPVGFCLLVLRLFLGIHVFLVSCALPDSVLRRFVVRTMCAVLGLVARQEDSGLRDHSVRVLISNHVTPFDHNIVNLLTTCSTPLLNSPPSFVCWSRGFMEMNGRGELVESLKRFCASTRLPPTPLLLFPEEEATNGREGLLRFSSWPFSIQDVVQPLTLQVQRPLVSVTVSDASWVSELLWSLFVPFTVYQVRWLRPVHRQLGEANEEFALRVQQLVAKELGQTGTRLTPADKAEHMKRQRHPRLRPQSAQSSFPPSPGPSPDVQLATLAQRVKEVLPHVPLGVIQRDLAKTGCVDLTITNLLEGAVAFMPEDITKGTQSLPTASASKFPSSGPVTPQPTALTFAKSSWARQESLQERKQALYEYARRRFTERRAQEAD
B7: myc-tagged full-length SIAH2 (enzyme, UniProt O43255 1-324)
chain: MSRPSSTGPSANKPCSKQPPPQPQHTPSPAAPPAAATISAAGPGSSAVPAAAAVISGPGGGGGAGPVSPQHHELTSLFECPVCFDYVLPPILQCQAGHLVCNQCRQKLSCCPTCRGALTPSIRNLAMEKVASAVLFPCKYATTGCSLTLHHTEKPEHEDICEYRPYSCPCPGASCKWQGSLEAVMSHLMHAHKSITTLQGEDIVFLATDINLPGAVDWVMMQSCFGHHFMLVLEKQEKYEGHQQFFAIVLLIGTRKQAENFAYRLELNGNRRRLTWEATPRSIHDGVAAAIMNSDCLVFDTAIAHLFADNGNLGINVTISTCCP

Chains of the proteins cited; added tags and fusions are not shown.
UniProt P42866: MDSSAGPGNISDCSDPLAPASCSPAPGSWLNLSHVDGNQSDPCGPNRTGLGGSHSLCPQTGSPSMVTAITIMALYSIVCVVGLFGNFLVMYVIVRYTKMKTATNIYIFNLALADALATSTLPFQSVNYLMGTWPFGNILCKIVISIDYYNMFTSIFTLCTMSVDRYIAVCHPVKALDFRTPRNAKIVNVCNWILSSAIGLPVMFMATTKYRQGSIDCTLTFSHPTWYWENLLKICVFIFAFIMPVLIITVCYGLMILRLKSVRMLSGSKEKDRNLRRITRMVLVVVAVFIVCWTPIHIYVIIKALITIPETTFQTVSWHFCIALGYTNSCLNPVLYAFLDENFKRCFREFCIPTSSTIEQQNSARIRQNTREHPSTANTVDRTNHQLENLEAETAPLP
UniProt P41145: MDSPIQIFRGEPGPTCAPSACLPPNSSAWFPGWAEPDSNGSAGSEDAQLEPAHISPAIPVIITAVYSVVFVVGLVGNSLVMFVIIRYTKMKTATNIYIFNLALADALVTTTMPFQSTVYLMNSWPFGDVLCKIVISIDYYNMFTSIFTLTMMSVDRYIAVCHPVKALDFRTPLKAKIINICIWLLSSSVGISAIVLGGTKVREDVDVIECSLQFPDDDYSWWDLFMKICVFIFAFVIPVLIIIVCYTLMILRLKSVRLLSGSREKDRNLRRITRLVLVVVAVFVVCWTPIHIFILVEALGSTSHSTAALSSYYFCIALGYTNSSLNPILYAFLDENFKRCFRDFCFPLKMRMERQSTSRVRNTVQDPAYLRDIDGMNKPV

Substitutions are numbered along the chain they refer to. Results are given in words; binding and its absence hold for the method and conditions named. In cells and extracts the contact can be indirect. Some results given as binding are weak or reduced against the parent protein; the word gives no strength. For some of these results: Where a sequence is shown, tags or fusion partners need not be part of it.

The first assay addresses mu-opioid receptor endogenous in mouse brain (mouse (endogenous in C57BL6 brain)) (UniProt P42866). Kind of assay: co-IP; MOR immunoprecipitated from whole mouse brain lysate with rabbit anti-MOR (AB1580) on Protein-G MAG sepharose beads; blots with anti-SIAH1, anti-GPR177 or anti-VAPA; mock with rabbit IgG.
As for B1, the binding result is “binds”.
The same measure, in the same setting: for B2 the value was “binds”.

The target of another assay is FLAG-tagged kappa opioid receptor stably expressed in HEK293 cells (HEK-KOR) (UniProt P41145). The assay can be described thus: co-IP; FLAG-tagged MOR, DOR or KOR immunoprecipitated with rabbit anti-FLAG on Protein-G Dynabeads from 1 mg lysate of stably expressing HEK293 cells transfected with tagged MORIPs; blot anti-myc or anti-HA; mock IP with non-specific rabbit IgG; cells of Figure 7B treated 6 hours with 30 µM MG132.
Consider B3, for which the binding entry is reported as “binds”.
Still for that read-out and setting: for B4 the value was “binds”; for B5, “binds”.
The same measure, in the same setting: for B6 the value was “binds”.
Regarding B7, the binding result is “binds”.

For the origin of these results see publication PMC3695902.
